The full ranking holds about 1,600 compounds; the median of “plate-normalized OD600 growth (mean of duplicates)” is about 0.31, and the lowest 2% start at about 0.23. The list shows a part of the results.
Tested on: Escherichia coli BW25113
Experiment: plate-normalized OD600 growth (mean of duplicates) (OD600 (normalized)); higher = more growth (less inhibition)
Conditions: 10 µM
Experimental: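 E. coli BW25113 in LB (100 µl, 96-well, no shaking) was exposed to 10 µM of each compound (here the ChemBridge subset of a ~30,000-member library) and grown at 37°C for 24 h or 15°C for 48 h, in duplicate. Growth was read as OD600 and the duplicate ODs were normalized across screening plates to correct plate-to-plate variation.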

Row | SMILES | plate-normalized OD600 growth (temperature: 15°C, 48 h) | plate-normalized OD600 growth (temperature: 37°C, 24 h)
1 | CC(C)(C)c1ccc(Cn2c(N)nc3ccccc32)cc1 | 0.26 | 0.583
2 | CCOc1ccc2cc(C=O)c(=O)[nH]c2c1 | 0.246 | 0.613
3 | N#Cc1c(N)nc(SCC(=O)c2ccc(Br)cc2)c(C#N)c1-c1ccc(O)cc1 | 0.267 | 0.653
4 | c1cncc(-c2nc3c4c5c(sc4ncn3n2)CCCC5)c1 | 0.261 | 0.628
5 | CCCN1CCC(NC23CC4CC(CC(C4)C2)C3)CC1 | 0.25 | 0.633
6 | CC(=O)C1=C(C)OC(N)=C(C#N)C1c1cc2c(cc1[N+](=O)[O-])OCO2 (stereo not given) | 0.245 | 0.617
7 | O=C(C(Cc1ccc([N+](=O)[O-])cc1)N1C(=O)c2ccccc2C1=O)N1CCCCC1 (stereo not given) | 0.242 | 0.598
8 | O=S(=O)(Cc1ccccc1)NCC1CCCO1 (stereo not given) | 0.251 | 0.623
9 | c1ccc2[nH]c(SCCN3CCCCC3)nc2c1 | 0.244 | 0.616
10 | CN1CCC(NCc2ccccc2F)CC1 | 0.212 | 0.645
11 | CC(=O)Nc1ccc2c(c1)ncn2-c1ccccc1 | 0.265 | 0.624
12 | Cc1ccc(NCc2ccc([N+](=O)[O-])cc2)cc1C | 0.237 | 0.605
13 | COc1cc([N+](=O)[O-])ccc1N1CCCC1 | 0.245 | 0.613
14 | COc1ccc(CN2CCC(N3CCCCC3)CC2)cc1 | 0.252 | 0.632
15 | N#CCC(N)=Nc1sc2c(c1C#N)CCCC2 | 0.247 | 0.619
16 | CCN(CC)Cc1cc(NC(C)=O)ccc1O | 0.262 | 0.623
17 | N#CC(c1ccccc1)C(C#N)c1ccccc1 (stereo not given) | 0.241 | 0.606
18 | CC1(C)Cc2ccccc2-c2nnc(-c3ccccc3)n21 | 0.261 | 0.634
19 | Cc1nc2ccccc2n1C(=O)c1ccccc1[N+](=O)[O-] | 0.227 | 0.631
20 | c1ccc(N2CCN(C3C4CC5CC(C4)CC3C5)CC2)cc1 (stereo not given) | 0.244 | 0.6
21 | CNc1ccc(OC(F)F)cc1C(=O)c1ccccc1 | 0.248 | 0.609
22 | CNC(=O)N1C(=O)C(=O)c2ccccc21 | 0.253 | 0.63
23 | O=C(NCC(O)c1ccccc1)c1ccc(Cl)cc1 (stereo not given) | 0.264 | 0.632
24 | CC(CCc1ccccc1)N1CCN(c2ccccc2F)CC1 (stereo not given) | 0.25 | 0.606

Row | SMILES | plate-normalized OD600 growth (temperature: 15°C, 48 h) | plate-normalized OD600 growth (temperature: 37°C, 24 h)
25 | CCC(NS(=O)(=O)c1ccc(Br)cc1)C(=O)O (stereo not given) | 0.255 | 0.615
26 | CCOC(=O)N1CCN(CC2CC=CCC2)CC1 (stereo not given) | 0.257 | 0.625
27 | CC(=O)Nc1c(Cl)c(Cl)c(NC(C)=O)c2n[nH]nc12 | 0.261 | 0.628
28 | COc1cc(CN(CCN(C)C)Cc2ccccc2)cc(OC)c1 | 0.255 | 0.619
29 | CS(=O)(=O)c1nc2ccccc2[nH]1 | 0.26 | 0.635
30 | CN(C)CCN(Cc1ccccc1)Cc1ccc(Br)cc1 | 0.231 | 0.609
31 | Brc1ccc(CN2CCc3ccccc3C2)o1 | 0.242 | 0.639
32 | CSC1=C(C#N)C(c2ccc(O)cc2)CC(=O)N1 (stereo not given) | 0.247 | 0.622
33 | C=C(C)[C@@H]1CC=C(CN2CCN(c3ccccn3)CC2)CC1 | 0.254 | 0.621
34 | CCOc1cccc(CN2CCCCCC2)c1O | 0.241 | 0.627
35 | COc1ccc(-c2nnc(-c3ccc(OC)cc3)o2)cc1 | 0.254 | 0.622
36 | N#Cc1c(N)c(C(=O)c2ccccc2)n2c1CCC2 | 0.266 | 0.631
37 | CCC1CCC(NCCCN2CCOCC2)CC1 (stereo not given) | 0.268 | 0.644
38 | COc1ccc(C(=O)Nc2ccccc2)cc1NC(=O)c1cccs1 | 0.241 | 0.645
39 | CCOc1ccc(C2(C)CC(=O)NC2=O)cc1 (stereo not given) | 0.277 | 0.647
40 | O=S(=O)(Nc1cccnc1)c1cc(Cl)ccc1Cl | 0.267 | 0.619
41 | COCCCNC(=O)c1cccc(C)c1 | 0.249 | 0.615
42 | CCC(=O)N1CCN(c2ccc([N+](=O)[O-])cc2F)CC1 | 0.25 | 0.627
43 | CC1(C)CC(=O)C2=C(C1)N(c1cccc(O)c1)C(=O)CC2c1ccccc1 (stereo not given) | 0.24 | 0.597
44 | CN1CCN(C2CC(=O)N(N(C)C)C2=O)CC1 (stereo not given) | 0.233 | 0.604
45 | CC(C)N(C(=O)c1cccs1)C(C)C | 0.257 | 0.626
46 | COc1ccc(NC(=O)c2ccccc2OC)cc1OC | 0.248 | 0.615
47 | CC(C)C(O)(C#CC(O)(C(C)C)C(C)C)C(C)C | 0.247 | 0.625
48 | NC(=O)C1CCCN(CCc2ccccc2)C1 (stereo not given) | 0.268 | 0.632

Row | SMILES | plate-normalized OD600 growth (temperature: 15°C, 48 h) | plate-normalized OD600 growth (temperature: 37°C, 24 h)
49 | CC1(C)CC(=O)C([N+](=O)[O-])=C(NCc2ccccc2)C1 | 0.253 | 0.633
50 | C=C(C)C(C)(O)C#CCN1CCCCC1 (stereo not given) | 0.251 | 0.612
51 | O=C(c1sc2ccccc2c1Cl)N1CCN(CCN2C(=O)C3C4C=CC(C4)C3C2=O)CC1 (stereo not given) | 0.243 | 0.611
52 | Cc1sc(N)nc1C12CC3CC(CC(C3)C1)C2 | 0.245 | 0.58
53 | CCCCOc1ccc(CN2CCC(O)CC2)cc1 | 0.272 | 0.664
54 | CC(Cc1c[nH]c2ccccc12)N1C(=O)CCC1=O (stereo not given) | 0.275 | 0.623
55 | COc1cc(CNc2ccc(C)cc2Br)cc(OC)c1OC | 0.254 | 0.621
56 | N#CC(=CC=Cc1ccccc1)c1nc(-c2ccc3c(c2)OCO3)cs1 | 0.252 | 0.609
57 | COc1ccc(CN2CCN(C(C)=O)CC2)c(C)c1C | 0.262 | 0.626
58 | Cc1cc(N2CCCCC2)c(F)cc1[N+](=O)[O-] | 0.235 | 0.621
59 | N#C/C(=C/c1ccc2c(c1)OCO2)c1ccc(Cl)cc1 | 0.248 | 0.642
60 | CCOc1ccc(C(=O)c2ccc([N+](=O)[O-])cc2Cl)cc1 | 0.265 | 0.637
61 | NS(=O)(=O)c1ccc(Cl)c(C(=O)Nc2cccc([N+](=O)[O-])c2)c1 | 0.25 | 0.605
62 | COc1ccc2[nH]cc(CCN3C(=O)c4ccccc4C3=O)c2c1 | 0.235 | 0.613
63 | NC(=O)c1ccccc1NC(=O)c1ccc(Cl)c(Cl)c1 | 0.255 | 0.605
64 | CCn1c2ccccc2n2cc(C)nc12 | 0.276 | 0.635
65 | Cc1cc(C)nc(SCCN(C)C)n1 | 0.242 | 0.609
66 | N#Cc1c(-c2ccccc2)cc(-c2ccco2)c(C#N)c1N | 0.255 | 0.622
67 | CCN(CC)CCCOc1ccc([N+](=O)[O-])cc1 | 0.246 | 0.624
68 | O=C(O)c1ccc(N2C(=O)CC(N3CCN(c4ccccn4)CC3)C2=O)cc1 (stereo not given) | 0.244 | 0.618
69 | COc1ccc(/C=C/c2[nH]c(=O)[nH]c(=O)c2[N+](=O)[O-])cc1Br | 0.258 | 0.62
70 | COc1ccc(C(=O)Nc2ccccc2-c2ccccc2)cc1 | 0.256 | 0.635

16 entries already listed, sorted by length of the SMILES, rising.
Row | SMILES | plate-normalized OD600 growth (temperature: 15°C, 48 h) | plate-normalized OD600 growth (temperature: 37°C, 24 h)
65 | Cc1cc(C)nc(SCCN(C)C)n1 | 0.242 | 0.609
50 | C=C(C)C(C)(O)C#CCN1CCCCC1 (stereo not given) | 0.251 | 0.612
52 | Cc1sc(N)nc1C12CC3CC(CC(C3)C1)C2 | 0.245 | 0.58
57 | COc1ccc(CN2CCN(C(C)=O)CC2)c(C)c1C | 0.262 | 0.626
54 | CC(Cc1c[nH]c2ccccc12)N1C(=O)CCC1=O (stereo not given) | 0.275 | 0.623
70 | COc1ccc(C(=O)Nc2ccccc2-c2ccccc2)cc1 | 0.256 | 0.635
63 | NC(=O)c1ccccc1NC(=O)c1ccc(Cl)c(Cl)c1 | 0.255 | 0.605
59 | N#C/C(=C/c1ccc2c(c1)OCO2)c1ccc(Cl)cc1 | 0.248 | 0.642
66 | N#Cc1c(-c2ccccc2)cc(-c2ccco2)c(C#N)c1N | 0.255 | 0.622
60 | CCOc1ccc(C(=O)c2ccc([N+](=O)[O-])cc2Cl)cc1 | 0.265 | 0.637
49 | CC1(C)CC(=O)C([N+](=O)[O-])=C(NCc2ccccc2)C1 | 0.253 | 0.633
56 | N#CC(=CC=Cc1ccccc1)c1nc(-c2ccc3c(c2)OCO3)cs1 | 0.252 | 0.609
68 | O=C(O)c1ccc(N2C(=O)CC(N3CCN(c4ccccn4)CC3)C2=O)cc1 (stereo not given) | 0.244 | 0.618
61 | NS(=O)(=O)c1ccc(Cl)c(C(=O)Nc2cccc([N+](=O)[O-])c2)c1 | 0.25 | 0.605
69 | COc1ccc(/C=C/c2[nH]c(=O)[nH]c(=O)c2[N+](=O)[O-])cc1Br | 0.258 | 0.62
51 | O=C(c1sc2ccccc2c1Cl)N1CCN(CCN2C(=O)C3C4C=CC(C4)C3C2=O)CC1 (stereo not given) | 0.243 | 0.611

Reference: the supplement of paper PMC4371806
